Reference: the supplement of paper PMC11546906
Counter-ions that a name gives are not always drawn. The list shows a part of the results. Repeats in this data set agree poorly, so a single value says little.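 Screen of FDA-approved drugs, each combined with colistin at one-eighth of its MIC, against a multidrug-resistant mcr-1-positive clinical E. coli isolate; growth read as OD600 after 24 h. Bacteria without drug were the growth control and plain broth the blank. A combination counted as active when OD600 fell below 0.2.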

test system: Escherichia coli 42 (mcr-1-positive clinical isolate); experiment: OD600 after 24 h growth with compound plus colistin (absorbance units (OD600)); higher = more bacterial growth (less inhibition); conditions: first compound 25 µM; colistin concentration 0.5 ug/mL; incubation time 24 h; 37 °C

Compound | OD600
Cc1cn([C@H]2C[C@H](N=[N+]=[N-])[C@@H](CO)O2)c(=O)[nH]c1=O [Zidovudine] + CCC(C)CCCC(=O)N[C@@H](CCN)C(=O)N[C@H](C(=O)N[C@@H](CCN)C(=O)N[C@H]1CCNC(=O)[C@H]([C@@H](C)O)NC(=O)[C@H](CCN)NC(=O)[C@H](CCN)NC(=O)[C@H](CC(C)C)NC(=O)[C@@H](CC(C)C)NC(=O)[C@H](CCN)NC1=O)[C@@H](C)O [colistin] | active: 0.035
CC(C)C(=O)Oc1ccc(CO)cc1[C@H](CCN(C(C)C)C(C)C)c1ccccc1 [Fesoterodine fumarate] + CCC(C)CCCC(=O)N[C@@H](CCN)C(=O)N[C@H](C(=O)N[C@@H](CCN)C(=O)N[C@H]1CCNC(=O)[C@H]([C@@H](C)O)NC(=O)[C@H](CCN)NC(=O)[C@H](CCN)NC(=O)[C@H](CC(C)C)NC(=O)[C@@H](CC(C)C)NC(=O)[C@H](CCN)NC1=O)[C@@H](C)O [colistin] | inactive: 1.07
CCOC(=O)[C@H](CCc1ccccc1)N[C@@H](C)C(=O)N1CCC[C@H]1C(=O)O [Enalapril Maleate] + CCC(C)CCCC(=O)N[C@@H](CCN)C(=O)N[C@H](C(=O)N[C@@H](CCN)C(=O)N[C@H]1CCNC(=O)[C@H]([C@@H](C)O)NC(=O)[C@H](CCN)NC(=O)[C@H](CCN)NC(=O)[C@H](CC(C)C)NC(=O)[C@@H](CC(C)C)NC(=O)[C@H](CCN)NC1=O)[C@@H](C)O [colistin] | inactive: 1.04
